The supplement of paper PMC10849652
The other results are listed elsewhere or left out.

The chains behind the UniProt entries cited, without tags or fusion partners. Where a name states a change or a piece, a line headed by the entry shows the natural chain unless it says otherwise.
UniProt Q13526, whole entry, looked up: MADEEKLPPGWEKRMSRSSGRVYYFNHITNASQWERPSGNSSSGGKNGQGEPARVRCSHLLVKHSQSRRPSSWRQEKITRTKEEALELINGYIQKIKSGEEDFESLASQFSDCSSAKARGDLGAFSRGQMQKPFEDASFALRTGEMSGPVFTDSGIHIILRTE
UniProt O15173: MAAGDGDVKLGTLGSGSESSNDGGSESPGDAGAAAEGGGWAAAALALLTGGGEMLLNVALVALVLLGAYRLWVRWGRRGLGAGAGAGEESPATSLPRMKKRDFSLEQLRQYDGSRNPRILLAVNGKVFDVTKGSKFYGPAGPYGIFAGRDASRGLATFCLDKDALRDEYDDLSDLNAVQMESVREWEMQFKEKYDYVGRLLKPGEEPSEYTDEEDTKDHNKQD
PIGBOS1, A0A0B4J2F0, UniProt A0A0B4J2F0, whole entry, looked up: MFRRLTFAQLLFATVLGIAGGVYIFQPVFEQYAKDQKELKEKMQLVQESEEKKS
UniProt Q9NRX4: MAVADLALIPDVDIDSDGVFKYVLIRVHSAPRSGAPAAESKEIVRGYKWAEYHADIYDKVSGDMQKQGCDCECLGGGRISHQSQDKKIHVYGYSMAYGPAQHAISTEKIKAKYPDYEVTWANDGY
UniProt Q9H490: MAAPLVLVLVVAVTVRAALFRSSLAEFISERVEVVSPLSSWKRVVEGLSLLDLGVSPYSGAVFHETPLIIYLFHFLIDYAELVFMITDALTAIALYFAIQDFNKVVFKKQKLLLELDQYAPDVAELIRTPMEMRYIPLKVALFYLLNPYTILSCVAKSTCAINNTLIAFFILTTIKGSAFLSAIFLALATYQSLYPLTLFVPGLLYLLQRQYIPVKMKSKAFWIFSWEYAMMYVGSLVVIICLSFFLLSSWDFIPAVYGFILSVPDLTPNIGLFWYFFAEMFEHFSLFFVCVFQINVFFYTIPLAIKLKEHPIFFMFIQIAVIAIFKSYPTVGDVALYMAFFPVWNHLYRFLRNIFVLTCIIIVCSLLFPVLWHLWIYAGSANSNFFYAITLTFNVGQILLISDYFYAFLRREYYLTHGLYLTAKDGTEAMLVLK
UniProt P07737, whole entry, looked up: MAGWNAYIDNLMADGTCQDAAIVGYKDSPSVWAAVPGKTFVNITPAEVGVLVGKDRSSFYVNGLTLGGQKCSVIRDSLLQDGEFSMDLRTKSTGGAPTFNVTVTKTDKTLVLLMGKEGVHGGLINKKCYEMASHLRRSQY
UniProt P27986, whole entry, looked up: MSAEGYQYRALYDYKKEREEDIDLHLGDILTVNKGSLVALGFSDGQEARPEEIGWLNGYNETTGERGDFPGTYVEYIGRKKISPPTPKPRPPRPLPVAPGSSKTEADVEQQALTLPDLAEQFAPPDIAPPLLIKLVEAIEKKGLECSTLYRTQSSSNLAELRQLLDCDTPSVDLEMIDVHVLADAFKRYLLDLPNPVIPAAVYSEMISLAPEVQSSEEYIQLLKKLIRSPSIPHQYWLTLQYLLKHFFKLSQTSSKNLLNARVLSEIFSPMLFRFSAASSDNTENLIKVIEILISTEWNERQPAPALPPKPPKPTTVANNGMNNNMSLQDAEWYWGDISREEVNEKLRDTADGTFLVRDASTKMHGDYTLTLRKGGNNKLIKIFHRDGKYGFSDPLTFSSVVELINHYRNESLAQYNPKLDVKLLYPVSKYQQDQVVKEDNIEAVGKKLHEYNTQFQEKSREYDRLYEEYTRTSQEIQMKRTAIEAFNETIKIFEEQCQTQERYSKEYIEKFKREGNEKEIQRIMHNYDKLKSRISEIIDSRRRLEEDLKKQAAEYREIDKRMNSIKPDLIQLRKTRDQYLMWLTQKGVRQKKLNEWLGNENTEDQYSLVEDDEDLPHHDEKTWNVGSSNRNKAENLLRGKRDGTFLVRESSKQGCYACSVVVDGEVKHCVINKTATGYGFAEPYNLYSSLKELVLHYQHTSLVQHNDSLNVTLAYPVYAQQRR
UniProt O00625: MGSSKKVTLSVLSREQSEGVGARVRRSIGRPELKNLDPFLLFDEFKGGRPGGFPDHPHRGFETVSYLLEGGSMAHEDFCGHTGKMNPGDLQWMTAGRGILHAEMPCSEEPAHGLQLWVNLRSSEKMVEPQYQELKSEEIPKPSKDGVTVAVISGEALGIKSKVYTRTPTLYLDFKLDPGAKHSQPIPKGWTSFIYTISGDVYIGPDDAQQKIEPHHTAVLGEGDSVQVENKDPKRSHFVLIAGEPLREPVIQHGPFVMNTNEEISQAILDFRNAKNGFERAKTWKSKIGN
UniProt P14618, whole entry, looked up: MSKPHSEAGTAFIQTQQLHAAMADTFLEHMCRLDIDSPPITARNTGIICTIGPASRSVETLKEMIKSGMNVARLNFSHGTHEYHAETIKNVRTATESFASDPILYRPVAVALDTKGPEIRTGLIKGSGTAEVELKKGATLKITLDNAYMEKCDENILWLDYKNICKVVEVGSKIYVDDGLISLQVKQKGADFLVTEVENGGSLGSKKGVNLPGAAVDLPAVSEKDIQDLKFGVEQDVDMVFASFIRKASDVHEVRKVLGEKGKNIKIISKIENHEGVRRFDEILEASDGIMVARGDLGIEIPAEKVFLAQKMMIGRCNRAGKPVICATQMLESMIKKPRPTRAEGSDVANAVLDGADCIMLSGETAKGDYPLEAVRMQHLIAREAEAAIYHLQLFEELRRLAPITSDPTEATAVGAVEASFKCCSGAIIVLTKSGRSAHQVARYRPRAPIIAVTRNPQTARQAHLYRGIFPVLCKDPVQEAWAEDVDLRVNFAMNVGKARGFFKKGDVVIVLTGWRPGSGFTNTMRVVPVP
UniProt Q9NQP4, whole entry, looked up: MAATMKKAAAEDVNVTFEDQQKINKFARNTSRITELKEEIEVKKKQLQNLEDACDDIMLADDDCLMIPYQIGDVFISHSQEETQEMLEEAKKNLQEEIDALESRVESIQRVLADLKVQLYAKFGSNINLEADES
UniProt A6NDG6: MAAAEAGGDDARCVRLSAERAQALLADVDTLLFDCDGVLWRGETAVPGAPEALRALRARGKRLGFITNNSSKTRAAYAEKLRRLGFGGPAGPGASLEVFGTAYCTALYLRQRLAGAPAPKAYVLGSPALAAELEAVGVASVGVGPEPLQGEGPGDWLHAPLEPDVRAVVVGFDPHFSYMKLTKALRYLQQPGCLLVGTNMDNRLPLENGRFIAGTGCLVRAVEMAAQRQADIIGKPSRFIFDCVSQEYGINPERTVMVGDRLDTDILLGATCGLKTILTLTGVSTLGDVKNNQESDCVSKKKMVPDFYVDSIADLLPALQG
UniProt O15067: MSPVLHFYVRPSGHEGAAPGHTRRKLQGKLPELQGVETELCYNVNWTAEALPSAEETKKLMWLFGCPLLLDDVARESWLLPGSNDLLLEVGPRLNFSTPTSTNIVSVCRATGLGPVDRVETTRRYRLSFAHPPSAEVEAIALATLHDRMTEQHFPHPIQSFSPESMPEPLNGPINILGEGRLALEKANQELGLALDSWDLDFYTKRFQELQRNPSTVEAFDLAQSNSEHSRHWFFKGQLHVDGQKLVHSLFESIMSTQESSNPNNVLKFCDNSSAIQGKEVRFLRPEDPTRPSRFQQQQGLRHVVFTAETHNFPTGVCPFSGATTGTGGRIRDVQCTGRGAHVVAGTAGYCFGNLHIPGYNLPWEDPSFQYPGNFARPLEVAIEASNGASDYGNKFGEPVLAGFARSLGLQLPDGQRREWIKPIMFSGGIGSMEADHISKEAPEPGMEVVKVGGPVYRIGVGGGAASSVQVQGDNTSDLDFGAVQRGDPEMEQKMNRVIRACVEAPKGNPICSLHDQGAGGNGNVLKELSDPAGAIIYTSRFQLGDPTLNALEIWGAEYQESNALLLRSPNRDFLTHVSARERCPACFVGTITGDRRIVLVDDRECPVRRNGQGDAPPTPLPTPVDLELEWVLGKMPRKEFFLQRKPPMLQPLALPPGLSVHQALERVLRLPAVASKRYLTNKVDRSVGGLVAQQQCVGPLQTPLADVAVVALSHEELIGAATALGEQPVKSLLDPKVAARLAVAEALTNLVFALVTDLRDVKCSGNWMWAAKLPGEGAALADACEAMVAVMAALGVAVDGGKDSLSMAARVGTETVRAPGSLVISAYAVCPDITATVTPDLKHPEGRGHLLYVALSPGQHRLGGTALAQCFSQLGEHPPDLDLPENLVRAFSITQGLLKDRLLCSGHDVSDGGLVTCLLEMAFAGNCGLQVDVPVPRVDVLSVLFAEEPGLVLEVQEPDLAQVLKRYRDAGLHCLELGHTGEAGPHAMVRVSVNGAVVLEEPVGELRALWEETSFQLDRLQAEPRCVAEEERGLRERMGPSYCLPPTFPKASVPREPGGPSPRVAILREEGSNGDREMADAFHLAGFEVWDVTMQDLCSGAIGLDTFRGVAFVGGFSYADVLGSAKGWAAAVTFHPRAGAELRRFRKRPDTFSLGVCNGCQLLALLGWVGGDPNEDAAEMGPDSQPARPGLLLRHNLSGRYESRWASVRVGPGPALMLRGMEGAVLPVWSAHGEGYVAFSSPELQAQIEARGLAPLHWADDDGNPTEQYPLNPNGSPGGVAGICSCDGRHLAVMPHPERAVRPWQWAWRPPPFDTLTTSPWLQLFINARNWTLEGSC
UniProt Q96HS1, whole entry, looked up: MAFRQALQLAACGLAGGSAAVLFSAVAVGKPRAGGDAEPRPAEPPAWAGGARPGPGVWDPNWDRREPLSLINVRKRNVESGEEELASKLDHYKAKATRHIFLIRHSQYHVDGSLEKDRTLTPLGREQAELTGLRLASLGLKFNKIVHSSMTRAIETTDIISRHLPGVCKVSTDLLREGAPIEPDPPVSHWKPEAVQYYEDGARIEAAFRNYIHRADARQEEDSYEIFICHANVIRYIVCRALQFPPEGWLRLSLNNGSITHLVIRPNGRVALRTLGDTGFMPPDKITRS
UniProt O75167: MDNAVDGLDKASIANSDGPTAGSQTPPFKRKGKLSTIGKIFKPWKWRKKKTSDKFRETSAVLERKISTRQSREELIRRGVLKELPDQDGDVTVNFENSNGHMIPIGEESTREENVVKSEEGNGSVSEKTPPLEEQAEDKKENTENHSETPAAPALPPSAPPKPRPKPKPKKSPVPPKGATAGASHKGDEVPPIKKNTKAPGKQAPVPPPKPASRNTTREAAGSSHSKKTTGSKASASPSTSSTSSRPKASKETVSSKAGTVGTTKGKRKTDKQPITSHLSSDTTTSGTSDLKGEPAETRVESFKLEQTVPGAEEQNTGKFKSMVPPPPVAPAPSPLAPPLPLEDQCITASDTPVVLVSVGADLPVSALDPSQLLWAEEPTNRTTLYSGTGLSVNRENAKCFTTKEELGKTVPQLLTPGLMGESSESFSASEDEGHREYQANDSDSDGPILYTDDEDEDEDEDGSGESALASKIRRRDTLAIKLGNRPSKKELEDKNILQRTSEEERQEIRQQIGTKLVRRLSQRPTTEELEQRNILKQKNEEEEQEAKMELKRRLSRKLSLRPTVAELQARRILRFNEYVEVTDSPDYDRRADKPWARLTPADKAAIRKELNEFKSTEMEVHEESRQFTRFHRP
UniProt Q8NHP8: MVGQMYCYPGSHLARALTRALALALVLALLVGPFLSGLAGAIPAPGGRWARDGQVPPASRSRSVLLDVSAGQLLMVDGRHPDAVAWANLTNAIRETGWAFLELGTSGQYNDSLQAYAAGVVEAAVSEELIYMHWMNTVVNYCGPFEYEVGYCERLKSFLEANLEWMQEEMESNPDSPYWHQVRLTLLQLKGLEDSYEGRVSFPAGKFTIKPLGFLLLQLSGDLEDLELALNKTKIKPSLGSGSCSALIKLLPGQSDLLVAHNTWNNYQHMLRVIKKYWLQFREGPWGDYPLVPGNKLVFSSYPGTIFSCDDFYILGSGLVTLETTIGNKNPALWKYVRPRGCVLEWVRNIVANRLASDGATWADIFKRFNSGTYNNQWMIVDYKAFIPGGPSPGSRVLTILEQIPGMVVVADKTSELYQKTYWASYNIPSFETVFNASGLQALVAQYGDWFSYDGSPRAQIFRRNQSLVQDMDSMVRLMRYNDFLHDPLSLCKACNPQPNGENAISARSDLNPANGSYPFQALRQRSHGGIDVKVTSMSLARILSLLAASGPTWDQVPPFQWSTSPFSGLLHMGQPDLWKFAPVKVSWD
UniProt P52209: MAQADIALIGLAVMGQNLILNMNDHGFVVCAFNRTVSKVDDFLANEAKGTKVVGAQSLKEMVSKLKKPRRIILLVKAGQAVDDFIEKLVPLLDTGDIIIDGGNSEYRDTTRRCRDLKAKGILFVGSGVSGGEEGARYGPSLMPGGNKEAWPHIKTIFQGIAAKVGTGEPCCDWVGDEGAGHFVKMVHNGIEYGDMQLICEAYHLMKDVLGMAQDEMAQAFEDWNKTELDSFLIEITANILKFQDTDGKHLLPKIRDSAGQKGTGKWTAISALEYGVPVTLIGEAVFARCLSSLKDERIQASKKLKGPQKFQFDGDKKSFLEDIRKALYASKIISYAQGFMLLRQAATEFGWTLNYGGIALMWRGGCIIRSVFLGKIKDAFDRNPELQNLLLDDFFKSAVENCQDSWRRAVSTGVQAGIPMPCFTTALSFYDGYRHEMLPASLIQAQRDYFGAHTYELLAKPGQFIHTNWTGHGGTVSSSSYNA

Experiments:
Assay in all cases: log2 fold change, soluble protein after heating vs DMSO (PISA); higher = thermal stabilisation; K562 cells, 10 uM, 30 min; active = over 0.2 and 3.5 SD of the protein, either way, in both replicates (recomputed)
[1] = compound: CC[C@@H]1C(=O)N(C)c2cnc(Nc3ccc(C(=O)NC4CCN(C)CC4)cc3OC)nc2N1C1CCCC1
Summary of the method: (§1)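 Aliquots of K562 cells (2×10^6 cells/mL) treated with 10 μM compound for 30 min were heated for 3 min over 48°C-58°C. After pooling and extraction in PBS with 0.5% NP-40 at 4°C, soluble protein from a 21,000xg, 90 min spin was quantified by TMTpro 16plex LC-MS/MS with channel sums equalised. Thermal stability is expressed against control samples, from duplicates, as a log2 fold change.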

[2] = compound: CC[C@@H]1C(=O)N(C)c2cnc(Nc3ccc(C(=O)N[C@H]4CC[C@H](N5CCN(CC6CC6)CC5)CC4)cc3OC)nc2N1C(C)C [volasertib]
Summary of the method: as §1

[3] = compound: CC[C@H](C)N1C=C(C2=C(C=C(C=C21)C3=CN=C(C=C3)N4CCNCC4)C(=O)NCC5=C(C=C(NC5=O)C)C)C
Summary of the method: as §1

[4] = compound: CC[C@H](C)[C@@H](C(=O)N[C@@H]([C@@H](C)O)C(=O)N[C@@H](CC(C)C)C(=O)[C@]1(CO1)C)NC(=O)[C@H]([C@@H](C)CC)N(C)C(=O)C [epoxomicin]
Summary of the method: as §1

[5] = compound: CCn1c(C(=O)N(C2CC2)C2CC2)cc2c3c(ncn3C)c(Nc3cc(C)n(C)n3)nc21
Summary of the method: as §1

[6] = compound: CCn1cc(-c2ccnc3[nH]c(-c4cccc(CN(C)C)c4)cc23)c(-c2ccc(NC(=O)N(C)C)cc2)n1
Summary of the method: as §1

[7] = compound: CN(C)CC(=O)Nc1ccc2[nH]c(=O)c3ccccc3c2c1
Summary of the method: as §1

[8] = compound: CN(CCOC1=CC=C(C=C1)C[C@H]2C(=O)NC(=O)S2)C3=CC=CC=N3 (racemic) [rosiglitazone]
Summary of the method: as §1

[9] = compound: CN1C2=C(C3=C1C(=O)N(N=C3)CC4=CC(=CC=C4)N)SC(=C2)S(=O)C
Summary of the method: as §1

[10] = compound: CN1CCC(CNc2ccc3ncc(-c4cccc(OC(F)(F)F)c4)n3n2)CC1
Summary of the method: as §1

Target | log2 fold change [1] | log2 fold change [2] | log2 fold change [3] | log2 fold change [4] | log2 fold change [5] | log2 fold change [6] | log2 fold change [7] | log2 fold change [8] | log2 fold change [9] | log2 fold change [10]
PHGDH (UniProt O43175) | inactive: -0.028 | inactive: 0.013 | inactive: -0.015 | inactive: 0.013 | inactive: 0.027 | inactive: 0.013 | inactive: -0.014 | inactive: -0.009 | inactive: -0.056 | inactive: -0.01
PHC3 isoform 7 (UniProt Q8NDX5) | inactive: 0.076 | inactive: -0.163 | inactive: 0.178 | inactive: 0.254 |  |  |  |  |  | 
PIN1 (UniProt Q13526) | inactive: -0.029 | inactive: -0.173 | inactive: 0.018 | inactive: 0.043 | inactive: 0.016 | inactive: -0.054 | inactive: 0.034 | inactive: 0.011 | inactive: 0.012 | inactive: -0.007
PGRMC2 isoform 2 (UniProt O15173) | inactive: -0.053 | inactive: -0.012 | inactive: -0.01 | inactive: 0.049 | inactive: 0.016 | inactive: -0.039 | inactive: -0.005 | inactive: -0.028 | inactive: -0.036 | inactive: 0.134
PLEC (UniProt Q15149) | inactive: 0.118 | inactive: 0.04 | inactive: -0.025 | inactive: -0.067 | inactive: -0.042 | inactive: -0.003 | inactive: -0.037 | inactive: -0.059 | inactive: 0.192 | inactive: 0.014
PIGBOS1, A0A0B4J2F0 | inactive: 0.026 | inactive: -0.122 | inactive: -0.016 | inactive: 0.279 | inactive: 0.087 | inactive: -0.007 | inactive: 0.053 | inactive: 0.256 | inactive: -0.082 | inactive: 0.084
PHKB isoform 3 (UniProt Q93100) | inactive: -0.062 | inactive: -0.148 | inactive: 0.015 | inactive: -0.026 | inactive: -0.061 | inactive: 0.087 | inactive: 0.062 | inactive: 0.046 | inactive: 0.022 | inactive: -0.05
PHPT1 (UniProt Q9NRX4) | inactive: -0.021 | inactive: 0.065 | inactive: 0.012 | inactive: 0.016 | inactive: 0.096 | inactive: -0.011 | inactive: 0.018 | inactive: 0.006 | inactive: -0.076 | inactive: -0.076
PFKM isoform 3 (UniProt P08237) | inactive: 0.016 | inactive: 0.012 | inactive: -0.008 | inactive: 0.008 | inactive: 0.007 | inactive: -0.002 | inactive: -0.017 | inactive: -0.001 | inactive: -0.048 | inactive: -0.044
PIGK (UniProt Q92643) | inactive: -0.03 | inactive: -0.028 | inactive: 0.03 | inactive: 0.023 | inactive: -0.013 | inactive: -0.033 | inactive: -0.064 | inactive: 0.003 | inactive: -0.004 | inactive: -0.054
PIGU (UniProt Q9H490) | inactive: 0.056 | inactive: -0.054 | inactive: -0.008 | inactive: 0.092 | inactive: 0.018 | inactive: -0.016 | inactive: 0.002 | inactive: 0.038 | inactive: -0.092 | inactive: 0.063
PITPNA (UniProt Q00169) | inactive: -0.032 | inactive: 0.009 | inactive: -0.015 | inactive: 0.066 | inactive: -0.01 | inactive: -0.001 | inactive: -0.049 | inactive: -0.007 | inactive: -0.098 | inactive: -0.049
PFN1 (UniProt P07737) | inactive: -0.026 | inactive: -0.001 | inactive: 0.009 | inactive: 0.049 | inactive: 0.018 | inactive: 0.015 | inactive: -0.095 | inactive: -0.009 | inactive: -0.09 | inactive: -0.006
PEX3 (UniProt P56589) | inactive: 0.135 | inactive: -0.189 | inactive: -0.05 | inactive: -0.043 | inactive: -0.104 |  | inactive: 0.063 |  | inactive: 0.076 | 
PIK3R1 (UniProt P27986) | inactive: -0.04 | inactive: -0.142 | inactive: -0.018 | inactive: 0.036 |  | inactive: -0.072 | inactive: -0.002 |  | inactive: -0.064 | inactive: 0.127
PICALM (UniProt H0YEY8) | inactive: -0.042 | inactive: -0.099 | inactive: -0.051 | inactive: -0.01 | inactive: 0.048 | inactive: 0.171 | inactive: -0.08 | inactive: -0.054 | inactive: -0.018 | inactive: -0.035

Target | log2 fold change [1] | log2 fold change [2] | log2 fold change [3] | log2 fold change [4] | log2 fold change [5] | log2 fold change [6] | log2 fold change [7] | log2 fold change [8] | log2 fold change [9] | log2 fold change [10]
PIR (UniProt O00625) | inactive: -0.041 | inactive: -0.069 | inactive: -0.028 | inactive: 0.034 |  | inactive: -0.006 | inactive: 0.031 |  | inactive: -0.06 | inactive: -0.052
PKM isoform 2 (UniProt P14618) | inactive: 0 | inactive: 0.091 | inactive: 0.018 | inactive: 0.29 |  | inactive: -0.006 | inactive: 0.053 |  | inactive: -0.184 | inactive: -0.046
PGRMC1 (UniProt O00264) | inactive: -0.021 | inactive: -0.054 | inactive: -0.014 | inactive: 0.033 | inactive: 0.01 | inactive: -0.01 | inactive: 0.004 | inactive: -0.016 | inactive: -0.037 | inactive: 0.142
PFDN4 (UniProt Q9NQP4) | inactive: -0.055 | inactive: 0.054 | inactive: 0.008 | inactive: -0.026 | inactive: -0.002 | inactive: 0.009 | inactive: -0.045 | inactive: 0.024 | inactive: 0 | inactive: -0.023
PHF23 (UniProt Q9BUL5) | inactive: -0.023 | inactive: -0.109 | inactive: 0.017 | inactive: 0.077 | inactive: -0.018 | inactive: -0.048 | inactive: -0.051 | inactive: -0.011 | inactive: -0.028 | inactive: 0.055
PLCD1 isoform 2 (UniProt P51178) | inactive: 0.031 | inactive: 0.117 | inactive: 0.068 | inactive: 0.006 | inactive: -0.022 | inactive: -0.09 | inactive: -0.014 | inactive: 0.048 | inactive: -0.011 | inactive: -0.078
PGP (UniProt A6NDG6) | inactive: 0.023 | inactive: 0.025 | inactive: -0.036 | inactive: 0.018 | inactive: 0.021 | inactive: -0.031 | inactive: -0.01 | inactive: 0.03 | inactive: -0.033 | inactive: -0.011
PIEZO1 (UniProt Q92508) | inactive: 0.03 | inactive: -0.015 | inactive: -0.03 | inactive: 0.035 | inactive: -0.007 | inactive: -0.024 | inactive: 0 | inactive: -0.027 | inactive: -0.03 | inactive: -0.021
PIP4P2 (UniProt Q8N4L2) | inactive: -0.092 | inactive: -0.054 | inactive: -0.07 | inactive: -0.192 |  | inactive: 0.004 | inactive: -0.018 |  | inactive: -0.016 | active: -0.375
PFAS (UniProt O15067) | inactive: -0.04 | inactive: -0.124 | inactive: 0.113 | inactive: -0.016 |  | inactive: -0.069 | inactive: 0.031 |  | inactive: -0.241 | inactive: -0.001
PGAM5 (UniProt Q96HS1) | inactive: 0.177 | inactive: 0.123 | inactive: 0.001 | inactive: -0.074 | inactive: -0.037 | inactive: -0.009 | inactive: 0 | inactive: -0.02 | inactive: 0.146 | inactive: 0.148
PFKFB2 (UniProt O60825) | inactive: -0.012 | inactive: -0.018 | inactive: 0.007 | inactive: 0.003 | inactive: 0 | inactive: 0.004 | inactive: 0.041 | inactive: -0.016 | inactive: -0.135 | inactive: -0.152
PHACTR2 isoform 4 (UniProt O75167) | inactive: 0.035 | inactive: -0.011 | inactive: -0.289 | inactive: -0.047 | inactive: 0.003 | inactive: -0.047 | inactive: -0.095 | inactive: 0.048 | inactive: 0.137 | inactive: 0.108
PLBD2 (UniProt Q8NHP8) | inactive: -0.188 | active: -0.222 | inactive: -0.034 | inactive: -0.015 |  | inactive: 0.029 | inactive: 0.008 |  | inactive: -0.029 | inactive: -0.21
PLCH1 (UniProt Q4KWH8) | inactive: 0.082 | inactive: -0.059 | inactive: 0.041 | inactive: 0.07 | inactive: -0.076 | inactive: 0.067 | inactive: 0.008 | inactive: 0.055 | inactive: -0.015 | inactive: 0.024
PGD (UniProt P52209) | inactive: -0.026 | inactive: 0.034 | inactive: 0.028 | inactive: 0.067 | inactive: 0.013 | inactive: -0.022 | inactive: -0.026 | inactive: 0.02 | inactive: -0.095 | inactive: -0.05

Part of the list above, in markdown:

| Target | log2 fold change [1] | log2 fold change [2] | log2 fold change [3] | log2 fold change [4] | log2 fold change [5] | log2 fold change [6] | log2 fold change [7] | log2 fold change [8] | log2 fold change [9] | log2 fold change [10] |
| --- | --- | --- | --- | --- | --- | --- | --- | --- | --- | --- |
| PGRMC1 (UniProt O00264) | inactive: -0.021 | inactive: -0.054 | inactive: -0.014 | inactive: 0.033 | inactive: 0.01 | inactive: -0.01 | inactive: 0.004 | inactive: -0.016 | inactive: -0.037 | inactive: 0.142 |
| PHF23 (UniProt Q9BUL5) | inactive: -0.023 | inactive: -0.109 | inactive: 0.017 | inactive: 0.077 | inactive: -0.018 | inactive: -0.048 | inactive: -0.051 | inactive: -0.011 | inactive: -0.028 | inactive: 0.055 |
| PIEZO1 (UniProt Q92508) | inactive: 0.03 | inactive: -0.015 | inactive: -0.03 | inactive: 0.035 | inactive: -0.007 | inactive: -0.024 | inactive: 0 | inactive: -0.027 | inactive: -0.03 | inactive: -0.021 |
| PIP4P2 (UniProt Q8N4L2) | inactive: -0.092 | inactive: -0.054 | inactive: -0.07 | inactive: -0.192 |  | inactive: 0.004 | inactive: -0.018 |  | inactive: -0.016 | active: -0.375 |
| PGAM5 (UniProt Q96HS1) | inactive: 0.177 | inactive: 0.123 | inactive: 0.001 | inactive: -0.074 | inactive: -0.037 | inactive: -0.009 | inactive: 0 | inactive: -0.02 | inactive: 0.146 | inactive: 0.148 |
| PFKFB2 (UniProt O60825) | inactive: -0.012 | inactive: -0.018 | inactive: 0.007 | inactive: 0.003 | inactive: 0 | inactive: 0.004 | inactive: 0.041 | inactive: -0.016 | inactive: -0.135 | inactive: -0.152 |
| PLBD2 (UniProt Q8NHP8) | inactive: -0.188 | active: -0.222 | inactive: -0.034 | inactive: -0.015 |  | inactive: 0.029 | inactive: 0.008 |  | inactive: -0.029 | inactive: -0.21 |
